From article PMC5590874

Target: T1, Immunoglobulin peptide … derived from the CH1 domain of immunoglobulin, labelled with lucifer yellow
T1 sequence (peptide, lucifer yellow covalently attached to a thiol group by iodoacetamide chemistry): HTFPAVLGSC
Assay: fluorescence polarisation; fluorescence anisotropy of the lucifer yellow-labelled peptide at a fixed 12.5 uM with increasing concentrations of BiP; excitation 430 nm, emission 482 nm; both purified

binding: binds
Substance: Binding immunoglobulin protein (BiP), unmodified

These are yes or no findings as the source states them, for the method shown. Binding calls can cover weak binding; strength is not graded here. Sequences can lack the tags named with a protein.
